# Test results: the supplement of paper PMC8728848
# This is one part of the list.
# Experiments:
# Experiment in all cases: glycan array binding signal (z-score within array); higher = stronger binding
# Conditions in all cases: glycan notation: IUPAC condensed, linker removed
# Gal(b1-4)Glc = target: Gal(b1-4)Glc
# How it was run: (§1)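 The binding signal is a Z-score computed within each array. Data were drawn from 3228 arrays in the Consortium for Functional Glycomics database, restricted to those with a known protein sequence. Scores were averaged over arrays of the same protein sequence at different concentrations or buffers, and over linkers, and negative values can be taken as non-binding.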
# Gal(b1-4)Glc6S = target: Gal(b1-4)Glc6S
# How it was run: as §1
# Gal(b1-4)GlcNAc = target: Gal(b1-4)GlcNAc
# How it was run: as §1
# [1] = target: Gal(b1-4)GlcNAc(a1-6)Gal(b1-4)GlcNAc
# How it was run: as §1
# Gal(b1-4)GlcNAc(b1-2)Man = target: Gal(b1-4)GlcNAc(b1-2)Man
# How it was run: as §1
# [2] = target: Gal(b1-4)GlcNAc(b1-2)Man(a1-3)Man(b1-4)GlcNAc(b1-4)GlcNAc
# How it was run: as §1
# [3] = target: Gal(b1-4)GlcNAc(b1-2)Man(a1-3)[Gal(b1-4)GlcNAc(b1-2)Man(a1-6)]Man(b1-4)GlcNAc(b1-4)GlcNAc
# How it was run: as §1
# [4] = target: Gal(b1-4)GlcNAc(b1-2)Man(a1-3)[Gal(b1-4)GlcNAc(b1-2)Man(a1-6)]Man(b1-4)GlcNAc(b1-4)[Fuc(a1-6)]GlcNAc
# How it was run: as §1
# [5] = target: Gal(b1-4)GlcNAc(b1-2)Man(a1-3)[Gal(b1-4)GlcNAc(b1-2)Man(a1-6)][Gal(b1-4)GlcNAc(b1-4)]Man(b1-4)GlcNAc(b1-4)[Fuc(a1-6)]GlcNAc
# How it was run: as §1
# [6] = target: Gal(b1-4)GlcNAc(b1-2)Man(a1-3)[Gal(b1-4)GlcNAc(b1-2)Man(a1-6)][GlcNAc(b1-4)]Man(b1-4)GlcNAc(b1-4)[Fuc(a1-6)]GlcNAc
# How it was run: as §1
# [7] = target: Gal(b1-4)GlcNAc(b1-2)Man(a1-3)[GlcNAc(b1-2)Man(a1-6)]Man(b1-4)GlcNAc(b1-4)GlcNAc
# How it was run: as §1
# [8] = target: Gal(b1-4)GlcNAc(b1-2)Man(a1-3)[GlcNAc(b1-4)][Gal(b1-4)GlcNAc(b1-2)Man(a1-6)]Man(b1-4)GlcNAc(b1-4)GlcNAc
# How it was run: as §1
# [9] = target: Gal(b1-4)GlcNAc(b1-2)Man(a1-3)[Man(a1-6)]Man(b1-4)GlcNAc(b1-4)GlcNAc
# How it was run: as §1
# [10] = target: Gal(b1-4)GlcNAc(b1-2)Man(a1-6)Man(b1-4)GlcNAc(b1-4)GlcNAc
# How it was run: as §1
# [11] = target: Gal(b1-4)GlcNAc(b1-2)Man(a1-6)[GlcNAc(b1-2)Man(a1-3)]Man(b1-4)GlcNAc(b1-4)GlcNAc
# How it was run: as §1
# [12] = target: Gal(b1-4)GlcNAc(b1-2)Man(a1-6)[Man(a1-3)]Man(b1-4)GlcNAc(b1-4)GlcNAc
# How it was run: as §1
# [13] = target: Gal(b1-4)GlcNAc(b1-2)[Gal(b1-4)GlcNAc(b1-4)]Man(a1-3)[Gal(b1-4)GlcNAc(b1-2)Man(a1-6)]Man(b1-4)GlcNAc(b1-4)GlcNAc
# How it was run: as §1
# [14] = target: Gal(b1-4)GlcNAc(b1-2)[Gal(b1-4)GlcNAc(b1-4)]Man(a1-3)[Gal(b1-4)GlcNAc(b1-2)[Gal(b1-4)GlcNAc(b1-6)]Man(a1-6)]Man(b1-4)GlcNAc(b1-4)GlcNAc
# How it was run: as §1
# [15] = target: Gal(b1-4)GlcNAc(b1-2)[Gal(b1-4)GlcNAc(b1-4)]Man(a1-3)[GlcNAc(b1-4)][Gal(b1-4)GlcNAc(b1-2)Man(a1-6)]Man(b1-4)GlcNAc(b1-4)GlcNAc
# How it was run: as §1
# [16] = target: Gal(b1-4)GlcNAc(b1-2)[Gal(b1-4)GlcNAc(b1-4)]Man(a1-3)[GlcNAc(b1-4)][Gal(b1-4)GlcNAc(b1-2)[Gal(b1-4)GlcNAc(b1-6)]Man(a1-6)]Man(b1-4)GlcNAc(b1-4)GlcNAc
# How it was run: as §1
# [17] = target: Gal(b1-4)GlcNAc(b1-2)[Gal(b1-4)GlcNAc(b1-6)]Man(a1-6)[Gal(b1-4)GlcNAc(b1-2)Man(a1-3)]Man(b1-4)GlcNAc(b1-4)GlcNAc
# How it was run: as §1
# [18] = target: Gal(b1-4)GlcNAc(b1-2)[Gal(b1-4)GlcNAc(b1-6)]Man(a1-6)[Gal(b1-4)GlcNAc(b1-2)Man(a1-3)]Man(b1-4)GlcNAc(b1-4)[Fuc(a1-6)]GlcNAc
# How it was run: as §1
# [19] = target: Gal(b1-4)GlcNAc(b1-2)[Gal(b1-4)GlcNAc(b1-6)]Man(a1-6)[GlcNAc(b1-4)][Gal(b1-4)GlcNAc(b1-2)Man(a1-3)]Man(b1-4)GlcNAc(b1-4)GlcNAc
# How it was run: as §1
# [20] = target: Gal(b1-4)GlcNAc(b1-2)[Gal(b1-4)GlcNAc(b1-6)]Man(a1-6)[GlcNAc(b1-4)][Gal(b1-4)GlcNAc(b1-2)[Gal(b1-4)GlcNAc(b1-4)]Man(a1-3)]Man(b1-4)GlcNAc(b1-4)[Fuc(a1-6)]GlcNAc
# How it was run: as §1
# [21] = target: Gal(b1-4)GlcNAc(b1-3)Gal(b1-3)GalNAc
# How it was run: as §1
# [22] = target: Gal(b1-4)GlcNAc(b1-3)Gal(b1-3)GlcNAc
# How it was run: as §1
# [23] = target: Gal(b1-4)GlcNAc(b1-3)Gal(b1-4)Glc
# How it was run: as §1
# [24] = target: Gal(b1-4)GlcNAc(b1-3)Gal(b1-4)GlcNAc
# How it was run: as §1
# [25] = target: Gal(b1-4)GlcNAc(b1-3)Gal(b1-4)GlcNAc(b1-2)Man(a1-3)[Gal(b1-4)GlcNAc(b1-3)Gal(b1-4)GlcNAc(b1-2)Man(a1-6)]Man(b1-4)GlcNAc(b1-4)GlcNAc
# How it was run: as §1
# [26] = target: Gal(b1-4)GlcNAc(b1-3)Gal(b1-4)GlcNAc(b1-2)Man(a1-3)[Gal(b1-4)GlcNAc(b1-3)Gal(b1-4)GlcNAc(b1-2)Man(a1-6)]Man(b1-4)GlcNAc(b1-4)[Fuc(a1-6)]GlcNAc
# How it was run: as §1
# [27] = target: Gal(b1-4)GlcNAc(b1-3)Gal(b1-4)GlcNAc(b1-2)[Gal(b1-4)GlcNAc(b1-3)Gal(b1-4)GlcNAc(b1-6)]Man(a1-6)[Gal(b1-4)GlcNAc(b1-3)Gal(b1-4)GlcNAc(b1-2)Man(a1-3)]Man(b1-4)GlcNAc(b1-4)GlcNAc
# How it was run: as §1
# [28] = target: Gal(b1-4)GlcNAc(b1-3)Gal(b1-4)GlcNAc(b1-2)[Gal(b1-4)GlcNAc(b1-3)Gal(b1-4)GlcNAc(b1-6)]Man(a1-6)[Gal(b1-4)GlcNAc(b1-3)Gal(b1-4)GlcNAc(b1-2)Man(a1-3)]Man(b1-4)GlcNAc(b1-4)[Fuc(a1-6)]GlcNAc
# How it was run: as §1
# [29] = target: Gal(b1-4)GlcNAc(b1-3)Gal(b1-4)GlcNAc(b1-3)Gal(b1-4)GlcNAc
# How it was run: as §1
# [30] = target: Gal(b1-4)GlcNAc(b1-3)Gal(b1-4)GlcNAc(b1-3)Gal(b1-4)GlcNAc(b1-2)Man(a1-3)[Gal(b1-4)GlcNAc(b1-3)Gal(b1-4)GlcNAc(b1-3)Gal(b1-4)GlcNAc(b1-2)Man(a1-6)]Man(b1-4)GlcNAc(b1-4)GlcNAc
# How it was run: as §1
# [31] = target: Gal(b1-4)GlcNAc(b1-3)Gal(b1-4)GlcNAc(b1-3)Gal(b1-4)GlcNAc(b1-2)Man(a1-3)[Gal(b1-4)GlcNAc(b1-3)Gal(b1-4)GlcNAc(b1-3)Gal(b1-4)GlcNAc(b1-2)Man(a1-6)]Man(b1-4)GlcNAc(b1-4)[Fuc(a1-6)]GlcNAc
# How it was run: as §1
# [32] = target: Gal(b1-4)GlcNAc(b1-3)Gal(b1-4)GlcNAc(b1-3)Gal(b1-4)GlcNAc(b1-2)[Gal(b1-4)GlcNAc(b1-3)Gal(b1-4)GlcNAc(b1-3)Gal(b1-4)GlcNAc(b1-6)]Man(a1-6)[Gal(b1-4)GlcNAc(b1-3)Gal(b1-4)GlcNAc(b1-3)Gal(b1-4)GlcNAc(b1-2)Man(a1-3)]Man(b1-4)GlcNAc(b1-4)[Fuc(a1-6)]GlcNAc
# How it was run: as §1
# [33] = target: Gal(b1-4)GlcNAc(b1-3)Gal(b1-4)GlcNAc(b1-3)Gal(b1-4)GlcNAc(b1-3)Gal(b1-4)GlcNAc(b1-2)Man(a1-3)[Gal(b1-4)GlcNAc(b1-3)Gal(b1-4)GlcNAc(b1-3)Gal(b1-4)GlcNAc(b1-3)Gal(b1-4)GlcNAc(b1-2)Man(a1-6)]Man(b1-4)GlcNAc(b1-4)GlcNAc
# How it was run: as §1
binder,measurement,setting,value
Mnn9-2N3 (Aspergillus fumigatus) (protein) MAVARRMRRTNPITLLLAAILAIGFFIFVLSPSTTSASPVKAGSASSSSTSQQRREDNAAENPLSPPTKPFFKSQPVRHDGQQAPPPVVQYNLNQLSSTSTSAANGERILILTPMARFVPEYWDNVVKLTYPHELISIGFIIPKNKEGNAALAALEAAIAKTQSGPIDKRFASISILRQDFEPPLQSQDEKERHKISNQKARRESMSRARNSLLFTTLGPATAWVLWLDADIVETPPTLIQDLTAHDHPVLVPNCYQRYYNSEKKKMDVRPYDYNSWIDSSTAQSMAAEMGPDEILLEGYAEMPTYRTLMAHLADTANPNPKKVIELDGVGGTALMVKAEVHRDGAMFPAFPFYHLVETEGFAKMAKRLGYSVYGLPDYFVSRNFFFFFFFFFFG,glycan array binding signal (z-score),Gal(b1-4)Glc,0.681
same,glycan array binding signal (z-score),Gal(b1-4)Glc6S,-0.238
same,glycan array binding signal (z-score),Gal(b1-4)GlcNAc,0.799
same,glycan array binding signal (z-score),[1],0.224
same,glycan array binding signal (z-score),Gal(b1-4)GlcNAc(b1-2)Man,0.107
same,glycan array binding signal (z-score),[2],-0.05
same,glycan array binding signal (z-score),[3],0.339
same,glycan array binding signal (z-score),[4],-0.584
same,glycan array binding signal (z-score),[5],-0.424
same,glycan array binding signal (z-score),[6],0.049
same,glycan array binding signal (z-score),[7],1.86
same,glycan array binding signal (z-score),[8],-0.193
same,glycan array binding signal (z-score),[9],-0.345
same,glycan array binding signal (z-score),[10],-0.394
same,glycan array binding signal (z-score),[11],-0.198
same,glycan array binding signal (z-score),[12],-0.499
same,glycan array binding signal (z-score),[13],-0.102
same,glycan array binding signal (z-score),[14],-0.516
same,glycan array binding signal (z-score),[15],-0.269
same,glycan array binding signal (z-score),[16],-0.475
same,glycan array binding signal (z-score),[17],-0.721
same,glycan array binding signal (z-score),[18],0.615
same,glycan array binding signal (z-score),[19],-0.259
same,glycan array binding signal (z-score),[20],0.01
same,glycan array binding signal (z-score),[21],-0.539
same,glycan array binding signal (z-score),[22],-0.537
same,glycan array binding signal (z-score),[23],-0.212
same,glycan array binding signal (z-score),[24],-0.099
same,glycan array binding signal (z-score),[25],3.03
same,glycan array binding signal (z-score),[26],-1.26
same,glycan array binding signal (z-score),[27],-0.06
same,glycan array binding signal (z-score),[28],0.596
same,glycan array binding signal (z-score),[29],0.004
same,glycan array binding signal (z-score),[30],0.904
same,glycan array binding signal (z-score),[31],0.388
same,glycan array binding signal (z-score),[32],0.946
same,glycan array binding signal (z-score),[33],0.632

# Rewritten with bars between the fields: part of the list above
binder | measurement | setting | value
Mnn9-2N3 (Aspergillus fumigatus) (protein) MAVARRMRRTNPITLLLAAILAIGFFIFVLSPSTTSASPVKAGSASSSSTSQQRREDNAAENPLSPPTKPFFKSQPVRHDGQQAPPPVVQYNLNQLSSTSTSAANGERILILTPMARFVPEYWDNVVKLTYPHELISIGFIIPKNKEGNAALAALEAAIAKTQSGPIDKRFASISILRQDFEPPLQSQDEKERHKISNQKARRESMSRARNSLLFTTLGPATAWVLWLDADIVETPPTLIQDLTAHDHPVLVPNCYQRYYNSEKKKMDVRPYDYNSWIDSSTAQSMAAEMGPDEILLEGYAEMPTYRTLMAHLADTANPNPKKVIELDGVGGTALMVKAEVHRDGAMFPAFPFYHLVETEGFAKMAKRLGYSVYGLPDYFVSRNFFFFFFFFFFG | glycan array binding signal (z-score) | [26] | -1.26
same | glycan array binding signal (z-score) | [33] | 0.632
